Results on one substance are retold here after patent publication US4479941A (Merck & Co., Inc., priority 1982, dated 1984).

Strings that start with PEPTIDE1 are HELM notation: dots part the residues, brackets hold end groups and non-standard residues.

The data set can be described thus: general procedure: Boc solid-phase peptide synthesis; HBT. The following applies: late stage modification step, high performance liquid chromatography.

“PEPTIDE1{[IBU].H.P.F.H.[Sta].L.[NHBzl]}$$$$V2.0”: the “final HPLC purity” value worked out at 93.1%.
